Measurements as given in patent publication US20170349647A1.
No constants are given. Whether binding was seen depends on the method and setting.

Target: recombinant nucleoprotein (available from ORLA) derived from influenza viruses subtype B (influenza virus type B)
Assay: sandwich ELISA, VHH coated, recombinant NP titrated (FIG. 4F)

B1: VHH antibody consisting of the amino acid sequence represented by SEQ ID NO: 08 (VHH)
VHH: QVQLVESGGGLVQAGGSLRLSCAASRTIFNPNVMGWYRQAPGKQRELVADISLSGSTNYADSVKGRFTISRDNAKNTMYLQMNSLKPEDTAVYYCNTNAISGAPGRYWGQGTQVTVSS
**Q.** Which binding does the source give for B1 here?
**A.** Its binding is “no binding”.
